Experimental findings from article PMC4730607 are described below.

The chains behind the UniProt entries cited, without tags or fusion partners. Residues count along the entry.
UniProt Q9UBX2, 19-152: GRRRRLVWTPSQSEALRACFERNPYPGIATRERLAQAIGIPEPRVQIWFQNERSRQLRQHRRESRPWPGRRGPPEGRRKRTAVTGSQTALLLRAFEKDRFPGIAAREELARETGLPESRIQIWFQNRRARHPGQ

For some assays here: Negatives hold for the conditions tested. For some assays here: At least one verdict was read from the data and is not stated in words by the source. The comparison behind a weaker result is the experiment's own reference, which may not be listed here. For some assays here: For at least one entry, the source does not settle the construct or the ends of the probe.

Data set [1] addresses DUX4 DNA-binding domain (DUX4-HD, both homeodomains) (UniProt Q9UBX2). The experiment in a line: competition with a labelled probe. Conditions: vs FAM-CT, Direct EMSA: 10 uL 100 uM probe + 20 uL 250 uM protein (protein stock in 500 mM NaCl, 20 mM Tris-Cl pH 7.4), 1 h on ice, 3% agarose, EtBr, recombinant protein, residues 19-152.
Data set [2] shares this target. In words: EMSA. The settings on record: excess protein; Direct EMSA: 10 uL 100 uM probe + 20 uL 250 uM protein (protein stock in 500 mM NaCl, 20 mM Tris-Cl pH 7.4), 1 h on ice, 3% agarose, EtBr; recombinant protein; residues 19-152.

“GGCAGTCCAGCGTAATCAAGTCGGC (double strand) [DUX4(half)]”: the binding result in data set [1] was “no binding”. As to “GGCAGTCTAATTAGCTTTAGTCGGC (double strand) [SELEX3]”, the binding result in data set [1] (very weak) and in data set [2] was “binds more weakly” throughout. As to “GGCAGTCTAATTGAATCAAGTCGGC (double strand) [MALR]”, the binding result in data set [1] is “binds more weakly”.

For the sequence “GGCAGTCTTCTAATTAGTAGTCGGC (double strand) [Pitx1-25]”, in data set [1], the binding result was “no binding”.
